For two molecules, binding results are on record in patent publication US20030232419A1, “Molecules interacting with CASL (MICAL) polynucleotides, polypeptides, and methods of using the same” (priority 2002, published 2003).

Assay [1] deals with terminal "C2" portion of the Drosophila PlexA cytoplasmic domain (amino acids 1702-1945) (Drosophila). In words: yeast interaction assay (FIG. 5B legend).
Assay [2] has the same target. As to the kind of experiment: yeast two-hybrid, Plexin A C2 as bait, β-galactosidase assay.

Results are given in words; binding and its absence hold for the method and conditions named. Binding can be weak; no strength is given.

B1: clone 23 (C-terminal fragment of Drosophila MICAL from the yeast two-hybrid screen) (protein, not shown: large carriers)
chain: NSRYRKQTNTAKPKPESFSSSSPQLYIHKPHHLAAAHPSALDDQTPPPIPPLPLNYQRSDDESYANETREHKKQRAISKASRQAELKRLRIAQEIQREQEEIEVQLKDLEARGVLIEKALRGEAQNIENLDATKDNDEKLLKELLEIWRNITALKKRDEELTIRQQELQLEYRHAQLKEELNLRLSCNKLDKSSADVAAEGAILNEMLEIVAKRAALRPTASQLDLTAAGSASTSAEATGIKLTGQPHDHEESII
For the molecule B1, the binding entry in assay [1] and in assay [2] was “binds” each time.

B2: clone 151 (C-terminal fragment of Drosophila MICAL from the yeast two-hybrid screen) (protein, not shown: large carriers)
chain: NSRYRKQTNTAKPKPESFSSSSPQLYIHKPHHLAAAHPSALDDQTPPPIPPLPLNYQRSDDESYANETREHKKQRAISKASRQAELKRLRIAQEIQREQEEIEVQLKDLEARGVLIEKALRGEAQNIENLDATKDNDEKLLKELLEIWRNITALKKRDEELTIRQQELQLEYRHAQLKEELNLRLSCNKLDKSSADVAAEGAILNEMLEIVAKRAALRPTASQLDLTAAGSASTSAEATGIKLTGQPHDHEESII
As for B2, the binding result in assay [1] and in assay [2] was “binds” in each case.
